Measured values: PMC4683785
Results are given in words; binding and its absence hold for the method and conditions named. In cells and extracts the contact can be indirect.

The chains behind the UniProt entries cited, without tags or fusion partners.
UniProt Q8IYM9: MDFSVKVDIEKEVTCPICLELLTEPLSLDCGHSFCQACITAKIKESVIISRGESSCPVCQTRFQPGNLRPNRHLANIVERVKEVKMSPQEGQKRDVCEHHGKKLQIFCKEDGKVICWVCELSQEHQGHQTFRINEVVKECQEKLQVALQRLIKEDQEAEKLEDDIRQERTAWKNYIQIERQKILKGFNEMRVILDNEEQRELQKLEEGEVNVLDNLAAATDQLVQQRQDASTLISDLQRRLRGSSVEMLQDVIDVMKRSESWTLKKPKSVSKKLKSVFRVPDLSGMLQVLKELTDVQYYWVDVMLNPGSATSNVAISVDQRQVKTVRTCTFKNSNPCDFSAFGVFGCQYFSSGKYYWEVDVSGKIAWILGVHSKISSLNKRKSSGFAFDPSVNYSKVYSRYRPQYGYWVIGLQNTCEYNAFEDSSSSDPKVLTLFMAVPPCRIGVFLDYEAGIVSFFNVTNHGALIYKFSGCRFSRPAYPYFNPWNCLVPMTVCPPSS
UniProt P08047: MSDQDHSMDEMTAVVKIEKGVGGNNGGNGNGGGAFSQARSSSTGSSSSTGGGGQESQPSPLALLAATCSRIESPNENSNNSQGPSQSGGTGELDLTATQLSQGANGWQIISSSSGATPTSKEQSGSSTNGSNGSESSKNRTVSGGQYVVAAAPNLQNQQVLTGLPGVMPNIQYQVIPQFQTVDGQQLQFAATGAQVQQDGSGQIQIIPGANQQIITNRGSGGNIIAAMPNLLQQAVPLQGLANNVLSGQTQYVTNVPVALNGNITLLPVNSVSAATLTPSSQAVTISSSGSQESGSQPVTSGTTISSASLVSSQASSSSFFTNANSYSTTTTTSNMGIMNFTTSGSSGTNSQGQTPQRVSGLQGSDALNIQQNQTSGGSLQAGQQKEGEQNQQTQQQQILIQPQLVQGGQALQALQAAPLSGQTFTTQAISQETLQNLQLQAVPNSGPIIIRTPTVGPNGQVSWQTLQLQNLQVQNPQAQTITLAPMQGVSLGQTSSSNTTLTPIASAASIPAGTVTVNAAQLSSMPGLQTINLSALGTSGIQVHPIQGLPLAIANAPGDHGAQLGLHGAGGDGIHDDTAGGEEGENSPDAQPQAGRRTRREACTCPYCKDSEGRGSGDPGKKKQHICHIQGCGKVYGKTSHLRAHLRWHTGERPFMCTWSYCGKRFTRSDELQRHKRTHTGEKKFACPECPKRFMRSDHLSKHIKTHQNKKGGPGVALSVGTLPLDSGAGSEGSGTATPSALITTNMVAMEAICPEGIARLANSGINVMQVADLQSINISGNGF

Target: Tripartite motif 22 (TRIM22) (UniProt Q8IYM9)
Experiment: co-IP; 293T cells transfected with TRIM22-expressing plasmid; 24 h post-transfection 90 % of WCE immunoprecipitated 2 h at 4 °C with anti-TRIM22 (Abnova) Ab, Dynabeads protein G; western blot with anti-Sp1

binding: no binding
Substance: transcription factor specificity protein 1 (Sp1) (from UniProt P08047 1-785)
